Consider 27 molecules from the supplement of paper PMC10735217.

Each structure is given as a SMILES string. Several values for one entry are separate records, joined by “and”; a condition that tells them apart may be missing. Equal values may be shown once. Where a name gives a salt, the structure may show the parent alone. This is one part of the list. This data set is noisy: repeats of one test often differ as much as different tests do.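 Human kidney-derived cells stably carry a construct in which eight TEAD-binding elements drive luciferase, measured by luminescence in a drug-repurposing library screen. A hit is any compound whose signal exceeds the plate mean by more than five robust Z scores.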

The subject of the assay is HEK293A TEAD-LUC reporter. In words: TEAD-luciferase reporter activity (YAP activation), robust Z score vs plate; higher = stronger YAP/TEAD activation. As to conditions: 24 h.

With `O=C1NC(c2ccc(-c3ccccc3)cc2)Nc2ccccc21` (stereo unspecified), the TEAD-luciferase reporter activity runs as follows: (compound concentration: 200 nM) inactive: -0.643; (compound concentration: 2 uM) inactive: 2.28; (compound concentration: 10 uM) inactive: -0.601.
As to `Cc1occc(=O)c1[O][Ga+3]([O]c1c(C)occc1=O)[O]c1c(C)occc1=O` [gallium maltolate], the TEAD-luciferase reporter activity was inactive: -0.0951 (compound concentration: 200 nM), inactive: -0.624 (compound concentration: 2 uM) and inactive: -1.55 (compound concentration: 10 uM).
`COc1ccc2c(c1)N(C[C@H](C)CN(C)C)c1ccccc1S2` [Levomepromazine]: the TEAD-luciferase reporter activity was inactive: -1.03 (compound concentration: 200 nM), inactive: 2.71 (compound concentration: 2 uM) and inactive: 1.72 (compound concentration: 10 uM).
For the molecule `CCCCN(CCCC)CCCOC(=O)c1ccc(N)cc1`, the TEAD-luciferase reporter activity was inactive: -0.396 (compound concentration: 200 nM), inactive: 0.948 (compound concentration: 2 uM) and inactive: -2.2 (compound concentration: 10 uM).
For `CN1CCC(Nc2ncc3ncnc(Nc4ccc(F)c(Cl)c4)c3n2)CC1` [Falnidamol], the TEAD-luciferase reporter activity (compound concentration: 200 nM) was inactive: -1.17, the TEAD-luciferase reporter activity (compound concentration: 2 uM) is inactive: 1.33 and the TEAD-luciferase reporter activity (compound concentration: 10 uM) was inactive: 3.72.
In the case of `O=C(Nc1ccc(F)cc1)C1CN(C2CCCC2)C(=O)N1` (stereo unspecified), the TEAD-luciferase reporter activity is, setting by setting: (compound concentration: 200 nM) inactive: 0.552; (compound concentration: 10 uM) inactive: 3.19.
As to `CC(=O)NC[C@H]1CN(c2ccc(-n3ccnn3)c(F)c2)C(=O)O1`, the TEAD-luciferase reporter activity by setting is: (compound concentration: 200 nM) inactive: -1.13; (compound concentration: 2 uM) inactive: -0.204; (compound concentration: 10 uM) inactive: 3.81.
As for `CS(=O)(=O)Oc1ccc(OCCc2ccc(CC(C(=O)O)S(=O)CCc3ccc(O)cc3)cc2)cc1` (stereo unspecified), the TEAD-luciferase reporter activity by setting is: (compound concentration: 200 nM) inactive: -0.305; (compound concentration: 2 uM) inactive: -1.64; (compound concentration: 10 uM) inactive: 0.417.
With `COC(=O)c1oc(-c2ccc(Cl)cc2)nc1C`, the TEAD-luciferase reporter activity runs as follows: (compound concentration: 200 nM) inactive: -0.507; (compound concentration: 2 uM) inactive: 2.71; (compound concentration: 10 uM) inactive: -0.397.
Turning to `COCOC(=O)[C@@H]1N2C(=O)[C@@H](N3C(=O)C(c4ccccc4)NC3(C)C)[C@H]2SC1(C)C` (stereo partly specified) [sarpicillin], the TEAD-luciferase reporter activity (compound concentration: 200 nM) is inactive: 0.101, the TEAD-luciferase reporter activity (compound concentration: 2 uM) was inactive: 0.667 and the TEAD-luciferase reporter activity (compound concentration: 10 uM) is inactive: -0.668.
As for `N[C@@H]1CCCN(c2c(/C=C3\SC(=O)NC3=O)cccc2-c2ccccc2)C1`, the TEAD-luciferase reporter activity (compound concentration: 200 nM) was inactive: -0.78; the TEAD-luciferase reporter activity (compound concentration: 2 uM) is inactive: -1.23 and inactive: -1.45; the TEAD-luciferase reporter activity (compound concentration: 10 uM) was inactive: 0.148.
`C1CNCCN1` [1,4-Diazacyclohexane]: the TEAD-luciferase reporter activity is inactive: -0.483 (compound concentration: 200 nM) and inactive: -0.823 (compound concentration: 10 uM).
Turning to `C1CNCCN1`, where the note is “compound concentration: 2 uM”, the TEAD-luciferase reporter activity is inactive: 0.743.
In the case of `O=C(O)CCCC[C@@H]1SC[C@@H]2NC(=O)N[C@@H]21`, the TEAD-luciferase reporter activity runs as follows: (compound concentration: 200 nM) inactive: -0.188; (compound concentration: 2 uM) inactive: -0.729; (compound concentration: 10 uM) inactive: 1.45.
Take `COc1ccc(C[C@@H](CN[C@@H](CCCNC(=N)N)C(=O)O)NC(=O)[C@@H]2CCCN2C(=O)[C@H](CO)NC(=O)[C@H](Cc2cccs2)NC(=O)CNC(=O)[C@@H]2C[C@@H](O)CN2C(=O)[C@@H]2CCCN2C(=O)[C@@H](N)CCCNC(=N)N)cc1`: the TEAD-luciferase reporter activity runs as follows: (compound concentration: 200 nM) inactive: 1.82; (compound concentration: 2 uM) inactive: -0.0349; (compound concentration: 10 uM) inactive: 4.82.
For the molecule `COC(=O)c1csc(C)c1N`, the TEAD-luciferase reporter activity was inactive: -0.586 (compound concentration: 200 nM), inactive: -2.27 (compound concentration: 2 uM) and inactive: -0.0778 (compound concentration: 10 uM).
With `O=C(c1ccc(Cl)cc1)N1CCC(N2CCOCC2=O)CC1`, the TEAD-luciferase reporter activity by setting is: (compound concentration: 200 nM) inactive: -1.87; (compound concentration: 10 uM) inactive: 0.536.
With `CCn1nnc(C2=CCCN(C)C2)n1`, the TEAD-luciferase reporter activity (compound concentration: 200 nM) is inactive: 1.94, the TEAD-luciferase reporter activity (compound concentration: 2 uM) is inactive: -1.13 and the TEAD-luciferase reporter activity (compound concentration: 10 uM) was inactive: 0.176.
For `CN(C)CC1CCc2ccccc2C1=O` (stereo unspecified), in that order: inactive: 1.71, inactive: -1.62 and inactive: -1.08.
As for `C[C@H]1C[C@@H]2[C@H]([C@@H](O)C[C@@]3(C)[C@H]2CC[C@]3(O)C(=O)COC(=O)CCC(=O)O)[C@@]2(C)C=CC(=O)C=C12` [Methylprednisolone sodium succinate], the TEAD-luciferase reporter activity by setting is: (compound concentration: 200 nM) inactive: -0.994; (compound concentration: 2 uM) inactive: 1.13; (compound concentration: 10 uM) inactive: -0.329.
With `CCCCC1CCc2cc(O)cc3c(CCN4CCN(c5cc(C)ccn5)CC4)c(C)n1c23` (stereo unspecified), the TEAD-luciferase reporter activity (compound concentration: 200 nM) is inactive: -1.06, the TEAD-luciferase reporter activity (compound concentration: 2 uM) is inactive: 1.27 and the TEAD-luciferase reporter activity (compound concentration: 10 uM) is inactive: 1.11.
Turning to `NS(=O)(=O)OC[C@@H]1C[C@@H](n2ccc3c(N[C@H]4CCc5ccccc54)ncnc32)C[C@@H]1O`, the TEAD-luciferase reporter activity (compound concentration: 2 uM) was active: 7.33.
Consider `NS(=O)(=O)OC[C@@H]1C[C@@H](n2ccc3c(N[C@H]4CCc5ccccc54)ncnc32)C[C@@H]1O` [Pevonedistat], for which the TEAD-luciferase reporter activity (compound concentration: 200 nM) was inactive: 1.38, the TEAD-luciferase reporter activity (compound concentration: 2 uM) is active: 9.31 and the TEAD-luciferase reporter activity (compound concentration: 10 uM) is active: 6.57.
For `NCCNCCNCCN` [Trientine hydrochloride], the TEAD-luciferase reporter activity runs as follows: (compound concentration: 200 nM) inactive: -0.575; (compound concentration: 2 uM) inactive: 1.97; (compound concentration: 10 uM) inactive: 1.2.
In the case of `CN1CC[C@H](c2c(O)cc(O)c3c(=O)cc(-c4ccccc4Cl)oc23)[C@H](O)C1` [alvocidib], the TEAD-luciferase reporter activity (compound concentration: 2 uM) is inactive: -2.69.
On to `CN1CC[C@H](c2c(O)cc(O)c3c(=O)cc(-c4ccccc4Cl)oc23)[C@H](O)C1` [Flavopiridol], for which the TEAD-luciferase reporter activity is, setting by setting: (compound concentration: 200 nM) inactive: -1.25; (compound concentration: 10 uM) inactive: 0.207.
Consider `Cn1c(-c2cccnc2)c(CCCCCC(=O)O)c2cc(Cl)ccc21`, for which the TEAD-luciferase reporter activity is inactive: 1.13 (compound concentration: 200 nM), inactive: 0.0152 (compound concentration: 2 uM) and inactive: 0.886 (compound concentration: 10 uM).
